This is one part of the list.
Key:
Test in all cases: glycan array binding signal (z-score within array); higher = stronger binding
Conditions in all cases: glycan notation: IUPAC condensed, linker removed; mutation: D224N
[1] = biological target: Man(a1-3)[Man(a1-6)]Man(a1-6)[Man(a1-2)Man(a1-3)]Man(b1-4)GlcNAc(b1-4)GlcNAc
In short: (§1)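 The binding signal is a Z-score computed within each array. Data were drawn from 3228 arrays in the Consortium for Functional Glycomics database, restricted to those with a known protein sequence. Scores were averaged over arrays of the same protein sequence at different concentrations or buffers, and over linkers, and negative values can be taken as non-binding.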

[2] = biological target: Man(a1-3)[Man(a1-6)]Man(a1-6)[Man(a1-3)]Man
In short: as §1

[3] = biological target: Man(a1-3)[Man(a1-6)]Man(a1-6)[Man(a1-3)]Man(b1-4)GlcNAc(b1-4)GlcNAc
In short: as §1

[4] = biological target: Man(a1-3)[Man(a1-6)]Man(b1-4)GlcNAc(b1-4)GlcNAc
In short: as §1

[5] = biological target: Man(a1-3)[Man(a1-6)]Man(b1-4)GlcNAc(b1-4)[Fuc(a1-6)]GlcNAc
In short: as §1

Man(a1-6)Man = biological target: Man(a1-6)Man
In short: as §1

Man(b1-4)GlcNAc = biological target: Man(b1-4)GlcNAc
In short: as §1

MurNAc(b1-4)GlcNAc = biological target: MurNAc(b1-4)GlcNAc
In short: as §1

Neu5Ac(a2-3)Gal = biological target: Neu5Ac(a2-3)Gal
In short: as §1

[6] = biological target: Neu5Ac(a2-3)Gal(b1-3)GalNAc
In short: as §1

[7] = biological target: Neu5Ac(a2-3)Gal(b1-3)GalNAc(b1-3)Gal(a1-4)Gal(b1-4)Glc
In short: as §1

[8] = biological target: Neu5Ac(a2-3)Gal(b1-3)GalNAc(b1-4)Gal(b1-4)Glc
In short: as §1

[9] = biological target: Neu5Ac(a2-3)Gal(b1-3)GalNAc(b1-4)[Neu5Ac(a2-3)]Gal(b1-4)Glc
In short: as §1

[10] = biological target: Neu5Ac(a2-3)Gal(b1-3)GalNAc(b1-4)[Neu5Ac(a2-8)Neu5Ac(a2-3)]Gal(b1-4)Glc
In short: as §1

[11] = biological target: Neu5Ac(a2-3)Gal(b1-3)GalNAc6S
In short: as §1

[12] = biological target: Neu5Ac(a2-3)Gal(b1-3)GlcNAc
In short: as §1

[13] = biological target: Neu5Ac(a2-3)Gal(b1-3)GlcNAc(b1-2)Man
In short: as §1

[14] = biological target: Neu5Ac(a2-3)Gal(b1-3)GlcNAc(b1-2)Man(a1-3)[GlcNAc(b1-4)][Neu5Ac(a2-3)Gal(b1-3)GlcNAc(b1-2)Man(a1-6)]Man(b1-4)GlcNAc(b1-4)GlcNAc
In short: as §1

[15] = biological target: Neu5Ac(a2-3)Gal(b1-3)GlcNAc(b1-2)Man(a1-3)[Neu5Ac(a2-3)Gal(b1-3)GlcNAc(b1-2)Man(a1-6)]Man(b1-4)GlcNAc(b1-4)GlcNAc
In short: as §1

[16] = biological target: Neu5Ac(a2-3)Gal(b1-3)GlcNAc(b1-2)[Neu5Ac(a2-3)Gal(b1-3)GlcNAc(b1-4)]Man(a1-6)[Neu5Ac(a2-3)Gal(b1-3)GlcNAc(b1-2)Man(a1-3)]Man(b1-4)GlcNAc(b1-4)GlcNAc
In short: as §1

[17] = biological target: Neu5Ac(a2-3)Gal(b1-3)GlcNAc(b1-3)Gal(b1-3)GlcNAc
In short: as §1

[18] = biological target: Neu5Ac(a2-3)Gal(b1-3)GlcNAc(b1-3)Gal(b1-4)GlcNAc
In short: as §1

[19] = biological target: Neu5Ac(a2-3)Gal(b1-3)GlcNAc(b1-3)GalNAc
In short: as §1

[20] = biological target: Neu5Ac(a2-3)Gal(b1-3)GlcNAc(b1-6)GalNAc
In short: as §1

[21] = biological target: Neu5Ac(a2-3)Gal(b1-3)GlcNAc6S
In short: as §1

[22] = biological target: Neu5Ac(a2-3)Gal(b1-3)[Fuc(a1-4)]GlcNAc
In short: as §1

[23] = biological target: Neu5Ac(a2-3)Gal(b1-3)[Fuc(a1-4)]GlcNAc(b1-3)Gal(b1-3)[Fuc(a1-4)]GlcNAc
In short: as §1

[24] = biological target: Neu5Ac(a2-3)Gal(b1-3)[Fuc(a1-4)]GlcNAc(b1-3)Gal(b1-4)[Fuc(a1-3)]GlcNAc
In short: as §1

[25] = biological target: Neu5Ac(a2-3)Gal(b1-3)[GlcNAc(b1-6)]GalNAc
In short: as §1

[26] = biological target: Neu5Ac(a2-3)Gal(b1-3)[Neu5Ac(a2-6)]GalNAc
In short: as §1

[27] = biological target: Neu5Ac(a2-3)Gal(b1-3)[Neu5Ac(a2-6)]GlcNAc(b1-3)[Fuc(a1-3)[Gal(b1-4)]GlcNAc(b1-6)]Gal(b1-4)Glc
In short: as §1

[28] = biological target: Neu5Ac(a2-3)Gal(b1-3)]Neu5Ac(a2-3)Gal(b1-4)]GlcNAc
In short: as §1

Neu5Ac(a2-3)Gal(b1-4)Glc = biological target: Neu5Ac(a2-3)Gal(b1-4)Glc
In short: as §1

[29] = biological target: Neu5Ac(a2-3)Gal(b1-4)GlcNAc
In short: as §1

[30] = biological target: Neu5Ac(a2-3)Gal(b1-4)GlcNAc(b1-2)Man
In short: as §1

[31] = biological target: Neu5Ac(a2-3)Gal(b1-4)GlcNAc(b1-2)Man(a1-3)[GlcNAc(b1-4)][Neu5Ac(a2-3)Gal(b1-4)GlcNAc(b1-2)Man(a1-6)]Man(b1-4)GlcNAc(b1-4)GlcNAc
In short: as §1

[32] = biological target: Neu5Ac(a2-3)Gal(b1-4)GlcNAc(b1-2)Man(a1-3)[Neu5Ac(a2-3)Gal(b1-4)GlcNAc(b1-2)Man(a1-6)]Man(b1-4)GlcNAc(b1-4)GlcNAc
In short: as §1

[33] = biological target: Neu5Ac(a2-3)Gal(b1-4)GlcNAc(b1-2)Man(a1-3)[Neu5Ac(a2-3)Gal(b1-4)GlcNAc(b1-2)Man(a1-6)]Man(b1-4)GlcNAc(b1-4)[Fuc(a1-6)]GlcNAc
In short: as §1

B1: a L Fucosidase (Thermotoga maritima) (protein)
chain: MASMKPRYKPDWESLREHTVPKWFDKAKFGIFIHWGIYSVPGWATPTGELGKVPMDAWFFQNPYAEWYENSLRIKESPTWEYHVKTYGENFEYEKFADLFTAEKWDPQEWADLFKKAGAKYVIPTTKHHDGFCLWGTKYTDFNSVKRGPKRDLVGDLAKAVREAGLRFGVYYSGGLDWRFTTEPIRYPEDLSYIRPNTYEYADYAYKQVMELVDLYLPDVLWNNMGWPEKGKEDLKYLFAYYYNKHPEGSVNDRWGVPHWDFKTAEYHVNYPGDLPGYKWEFTRGIGLSFGYNRNEGPEHMLSVEQLVYTLVDVVSKGGNLLLNVGPKGDGTIPDLQKERLLGLGEWLRKYGDAIYGTSVWERCCAKTEDGTEIRFTRKCNRIFVIFLGIPTGEKIVIEDLNLSAGTVRHFLTGERLSFKNVGKNLEITVPKKLLETDSITLVLEAVEE
- glycan array binding signal (z-score) [1]: 0.752
- glycan array binding signal (z-score) [2]: 0.223
- glycan array binding signal (z-score) [3]: 0.156
- glycan array binding signal (z-score) [4]: -0.176
- glycan array binding signal (z-score) [5]: -0.563
- glycan array binding signal (z-score) (Man(a1-6)Man): 0.901
- glycan array binding signal (z-score) (Man(b1-4)GlcNAc): 1.15
- glycan array binding signal (z-score) (MurNAc(b1-4)GlcNAc): 0.223
- glycan array binding signal (z-score) (Neu5Ac(a2-3)Gal): -0.808
- glycan array binding signal (z-score) [6]: -0.389
- glycan array binding signal (z-score) [7]: -0.696
- glycan array binding signal (z-score) [8]: -1.2
- glycan array binding signal (z-score) [9]: -0.418
- glycan array binding signal (z-score) [10]: 0.139
- glycan array binding signal (z-score) [11]: -0.204
- glycan array binding signal (z-score) [12]: -0.496
- glycan array binding signal (z-score) [13]: -0.105
- glycan array binding signal (z-score) [14]: 0.126
- glycan array binding signal (z-score) [15]: -0.202
- glycan array binding signal (z-score) [16]: 1.03
- glycan array binding signal (z-score) [17]: -0.874
- glycan array binding signal (z-score) [18]: 0.415
- glycan array binding signal (z-score) [19]: 0.912
- glycan array binding signal (z-score) [20]: -0.019
- glycan array binding signal (z-score) [21]: -0.867
- glycan array binding signal (z-score) [22]: 0.956
- glycan array binding signal (z-score) [23]: -0.851
- glycan array binding signal (z-score) [24]: 1.27
- glycan array binding signal (z-score) [25]: 0.287
- glycan array binding signal (z-score) [26]: -0.253
- glycan array binding signal (z-score) [27]: 0.704
- glycan array binding signal (z-score) [28]: 0.97
- glycan array binding signal (z-score) (Neu5Ac(a2-3)Gal(b1-4)Glc): -0.039
- glycan array binding signal (z-score) [29]: 0.378
- glycan array binding signal (z-score) [30]: 1.55
- glycan array binding signal (z-score) [31]: -0.196
- glycan array binding signal (z-score) [32]: 1.02
- glycan array binding signal (z-score) [33]: 0.12

Reference: the supplement of paper PMC8728848
